These are yes or no findings as the source states them, for the method shown. Binding seen in cells or lysates may run through a third protein. Some results given as binding are weak or reduced against the parent protein; the word gives no strength.
Target: Runt-related transcription factor 2 (UniProt Q08775)
Experiment: co-IP; G2/M-synchronized C6 cells transfected with pECMV-Runx2-m-FLAG or pECMV-Fam50a-m-FLAG/pECMV-Runx2-m-FLAG (1:1), lysed with RIPA; immunoprecipitation with anti-Fam50a or anti-Runx2 (anti-IgG as control) on anti-IgG beads, four washes with cell lysis buffer, western blot

Sequences of proteins named here, by UniProt entry; tags and fusion partners are left off.
UniProt Q08775: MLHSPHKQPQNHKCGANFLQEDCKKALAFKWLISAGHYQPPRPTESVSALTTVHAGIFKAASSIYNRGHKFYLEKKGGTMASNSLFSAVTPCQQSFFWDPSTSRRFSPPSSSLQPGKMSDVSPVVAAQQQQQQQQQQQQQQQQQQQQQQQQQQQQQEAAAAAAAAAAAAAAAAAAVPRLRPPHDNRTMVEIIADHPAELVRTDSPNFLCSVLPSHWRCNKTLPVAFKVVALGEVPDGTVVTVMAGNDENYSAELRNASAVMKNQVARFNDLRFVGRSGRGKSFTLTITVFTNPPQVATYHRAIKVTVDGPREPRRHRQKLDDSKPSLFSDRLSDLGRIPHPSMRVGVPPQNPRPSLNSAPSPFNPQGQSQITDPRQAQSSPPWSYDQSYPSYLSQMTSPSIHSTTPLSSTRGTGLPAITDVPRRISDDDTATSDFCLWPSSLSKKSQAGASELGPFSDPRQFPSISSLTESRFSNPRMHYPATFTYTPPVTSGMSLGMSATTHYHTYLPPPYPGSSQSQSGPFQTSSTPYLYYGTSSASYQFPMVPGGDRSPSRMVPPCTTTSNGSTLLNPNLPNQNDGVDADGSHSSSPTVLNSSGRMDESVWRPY

B1: Fam50a (protein, UniProt Q9WV03 1-339)
chain: MAQYKGAASEAGRAMHLMKKREKQREQMEQMKQRIAEENIMKSNIDKKFSAHYDAVEAELKSSTVGLVTLNDMKAKQEALVKEREKQLAKKEQSKELQLKLEKLREKERKKEAKRKISSLSFTLEEEEEGVEEEEEMAMYEEELEREEITTKKKKLGKNPDVDTSFLPDRDREEEENRLREELRQEWEAKQEKIKSEEIEITFSYWDGSGHRRTVKMKKGNTMQQFLQKALEILRKDFSELRSAGVEQLMYIKEDLIIPHHHSFYDFIVTKARGKSGPLFNFDVHDDVRLLSDATVEKDESHAGKVVLRSWYEKNKHIFPASRWEPYDPEKKWDKYTIR
binding: binds

Source: article PMC10164743
